The name of at least one read-out is uncertain.
Tested on: human iPS cells
Assay: Sub-cellular localization in human iPS cells (co-staining with MitoRed, CCCP)
Assay type: cell-based
Procedure: Human iPS cells (clone#201B7) were plated on SNL feeder cells in 24-well plate. One day after plating, the cells were incubated with 1 μM Compound 1 for 4 hours at 37° C. After removing Compound 1 by washing with PBS, the cells were incubated with 9.6 nM MitoRed for 30 min at 37° C. The cells were rinsed with PBS and kept in fresh medium (without dye). Fluorescence microscopic images were taken by using Carl Zeiss Axioinvert 100M

N=c1ccc2c(-c3ccc(F)cc3)c3ccc(N)cc3oc-2c1 [Compound 1]
cell permeability: cell-permeable

Reference: US9335323B2, “Method for sorting of pluripotent cells” (KYOTO UNIVERSITY, priority 2012, dated 2016)
